Experimental data from PubChem BioAssay AID485318 (Broad Institute, 2010).
Hit rate of the full screen: of about 1,400 compounds, fewer than 10 were called active.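 How the source made its calls: active means fluorescence-lowering compounds whose fitted half-maximal concentration is at or below ten times the highest valid dose tested; inconclusive means flat curve at 30 to 70% inhibition, or poor fit; inactive means the rest.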 This is one part of the list.

Sequences of proteins named here, by UniProt entry; tags and fusion partners are left off. A change or cut given only in a name is not applied to a line headed by its entry.
UniProt O15379: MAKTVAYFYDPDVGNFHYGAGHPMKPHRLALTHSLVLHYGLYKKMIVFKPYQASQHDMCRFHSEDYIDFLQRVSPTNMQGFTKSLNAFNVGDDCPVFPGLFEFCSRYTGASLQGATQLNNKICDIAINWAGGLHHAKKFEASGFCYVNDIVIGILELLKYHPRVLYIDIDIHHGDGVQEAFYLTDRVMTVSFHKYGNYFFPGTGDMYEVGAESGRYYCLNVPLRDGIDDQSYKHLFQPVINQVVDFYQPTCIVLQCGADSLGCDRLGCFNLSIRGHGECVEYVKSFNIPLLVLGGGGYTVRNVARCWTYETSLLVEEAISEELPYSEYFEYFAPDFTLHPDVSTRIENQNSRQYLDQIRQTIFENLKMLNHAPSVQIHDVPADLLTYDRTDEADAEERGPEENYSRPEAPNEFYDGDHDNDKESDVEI

Target: Histone deacetylase 3 (Homo sapiens) (UniProt O15379)
Test: HDAC3 deacetylase inhibitors, dose response, counter-screen for JMJD2C/GASC1 demethylase inhibitor project, biochemical, fluorescence, cherry-picked samples (AID 485318);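 further: enzyme preincubated with compound before substrate and trypsin were added; 0% = neutral control wells and -100% = SAHA positive control wells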
Conditions: recombinant HDAC3, fluorogenic peptide/trypsin coupled; at 12 µM (top of the series)

SMILES | activity change, negative = inhibition
CCOC(=O)CSc1nc2sc(C)c(C)c2c(=O)[nH]1 | inactive: 0.571%
CSC1=NCCN1C(=O)c1cccc(C(F)(F)F)c1 | inactive: 0.495%
Cn1nc(-c2ccccn2)nc2c(=O)n(C)c(=O)nc1-2 | inactive: 0.336%
O=C(Nc1cccnc1)c1ccccc1Oc1ccccc1 | inactive: 0.526%
Cc1sc2ncnc(NCCCO)c2c1C | inactive: 0.736%
CC(C)(C)NC(=O)CSc1nc2cccnc2n1C1CCCCC1 | inactive: 0.349%
Cc1cccc(C)c1NS(=O)(=O)c1cc2c3c(c1)CC(=O)N3CCC2 | inactive: -0.579%
CCn1cnc2sc(C(=O)Nc3ccc4c(c3)OCO4)c(C)c2c1=O | inactive: 0.157%
CCOc1ccc(NCc2nnc(SCC(=O)Nc3cc(C)on3)n2-c2ccccc2OC)cc1 | inactive: 0.492%
Cc1ccc(S(=O)(=O)Nc2ccc3c(c2)C(=O)N([C@H](C)CO)C[C@H](C)[C@@H](CN(C)Cc2ccc(-c4ccccc4)cc2)O3)cc1 | inactive: -0.118%
CCCn1c(SCC(=O)NNC(=O)c2ccc(C)cc2)nnc1C(C)C | inactive: 1.33%
Cc1sc2nc(CN3CCOCC3)nc(NS(=O)(=O)c3cc(Cl)ccc3Cl)c2c1C | inactive: -0.0521%
COc1cc2[nH]c(=O)n(CCCCCC(=O)NCCCN3CCCC3=O)c(=O)c2cc1OC | inactive: 0.253%
O=C(CSc1nc(-c2ccco2)cc(C(F)(F)F)n1)Nc1ccc(C(=O)N2CCCCC2)cc1 | inactive: -1.01%
CCOC(=O)C1CCN(S(=O)(=O)c2cc3c4c(c2)C(C)C(=O)N4CCC3)CC1 (centres undefined) | inactive: 0.692%
COc1cc(-c2nc(-c3cccc(C)c3)no2)cc(OC)c1OC | inactive: -0.243%
Cc1noc(C)c1NC(=O)N(C)C[C@H]1Oc2ccc(NC(=O)Cn3cnnn3)cc2C(=O)N([C@H](C)CO)C[C@@H]1C | inactive: -0.141%
O=C(NCc1ccccc1)c1ccc2c(c1)OCCO2 | inactive: 1.27%
Cc1cc(C)c(NC(=O)CS(=O)CC(=O)Nc2ccc(F)cc2F)c(C)c1 (centres undefined) | inactive: -0.338%
Cc1sc2c(c1C)C(=O)/C(=C\Nc1ccccn1)S(=O)(=O)N2C | inactive: 0.146%
COc1cccc(/C=N/Nc2nc3ccccc3[nH]2)c1O | inactive: -1%

SMILES | activity change, negative = inhibition
CNc1nc2c(c(=O)[nH]c(=O)n2C)n1CCCc1ccccc1 | inactive: 0.246%
CC(C)N(C(=O)[C@H]1CC(CC(=O)NCc2cccc(C(F)(F)F)c2)C(=O)N2CCc3c([nH]c4ccccc34)[C@]12C)C(C)C (some centres undefined) | inactive: -0.336%
O=c1[nH]cc(N=Cc2cc(Cl)cc(Cl)c2O)c(=O)[nH]1 | inactive: 0.212%
CC(=O)c1sc(NC(=O)c2ccc(C)cc2)nc1C | inactive: 0.775%
CCN(CC)C(CNS(=O)(=O)c1ccc(Cl)cc1)c1ccccc1 (centres undefined) | inactive: -0.496%
O=C(N/N=C/c1nn(-c2ccccc2)cc1-c1ccccc1)c1ccncc1 | inactive: 0.63%
CC(O)CNc1nc2ccccc2n1CC(=O)NC12CC3CC(CC(C3)C1)C2 (centres undefined) | inactive: 0.442%
O=C(NCc1ccccn1)c1ccc(OC2CCN(Cc3cccs3)CC2)cc1 | inactive: -0.641%
CC1SC(=NC(=O)C(C)N2C(=O)c3ccccc3C2=O)NC1=O (centres undefined) | inactive: 0.0806%
COc1ccccc1C(c1nnnn1Cc1ccccc1)N1CCN(C2CCCC2)CC1 (centres undefined) | inactive: 0.0105%
CCOc1cccc(SCc2noc(C(=O)NC(C)C)c2C(=O)O)c1 | inactive: -0.232%
O=C(Nc1ccccc1)N(CCc1nc2ccccc2[nH]1)C1CCCC1 | inactive: -0.0234%
O=c1oc2ccccc2c2c1C(c1ccc(Cl)cc1)Nc1ccc3ccccc3c1-2 (centres undefined) | inactive: -0.0547%
Cc1ccccc1C(=O)Nc1ccccc1C(=O)NC1CC1 | inactive: -0.181%
C#CCOCCOCCOCCNc1nc(N2CCN(C(=O)[C@H](CCC(=O)O)n3cc([C@@H](N)[C@H](C)CC)nn3)CC2)nc(N2CCN(C(=O)[C@H](CCCCN)n3cc([C@@H](N)CC(N)=O)nn3)CC2)n1 | inactive: -0.316%
CCN(C[C@H]1N[C@@](C)(C(=O)OC)[C@H]2C(=O)N(Cc3ccccc3)C(=O)[C@@H]12)C(=O)Nc1ccc(Cl)cc1 | inactive: 0.00139%
Cc1cccc(OCc2nnc(SCC(=O)Nc3cccc(C(=O)N4CCOCC4)c3)o2)c1C | inactive: 0.472%
CCCCN(C(=S)NC(=O)c1cc(OC)c(OC)c(OC)c1)c1c(N)n(Cc2ccccc2)c(=O)[nH]c1=O | inactive: 0.436%
COc1ccc(-c2nn3c(-c4ccco4)nnc3s2)cc1OC | inactive: -1.07%
COc1cc(C#N)c(N=C(SCC#N)N2CCOCC2)cc1OC | inactive: -0.819%
CC(C)(C)OC(=O)CNC(=O)c1[nH]cnc1C(=O)N[C@@H](CCCCN)C(=O)OC(C)(C)C | inactive: 0.233%

Look-ups from above.
Value for `CC(C)N(C(=O)[C@H]1CC(CC(=O)NCc2cccc(C(F)(F)F)c2)C(=O)N2CCc3c([nH]c4ccccc34)[C@]12C)C(C)C` (some centres undefined) under activity change, negative = inhibition: inactive: -0.336%
Value for `COc1cc(-c2nc(-c3cccc(C)c3)no2)cc(OC)c1OC` under activity change, negative = inhibition: inactive: -0.243%
Value for `COc1ccccc1C(c1nnnn1Cc1ccccc1)N1CCN(C2CCCC2)CC1` (centres undefined) under activity change, negative = inhibition: inactive: 0.0105%
Value for `CC1SC(=NC(=O)C(C)N2C(=O)c3ccccc3C2=O)NC1=O` (centres undefined) under activity change, negative = inhibition: inactive: 0.0806%
Value for `CCOC(=O)C1CCN(S(=O)(=O)c2cc3c4c(c2)C(C)C(=O)N4CCC3)CC1` (centres undefined) under activity change, negative = inhibition: inactive: 0.692%
Value for `O=C(N/N=C/c1nn(-c2ccccc2)cc1-c1ccccc1)c1ccncc1` under activity change, negative = inhibition: inactive: 0.63%

(next part)

SMILES | activity change, negative = inhibition
O=C(NCc1ccccn1)c1cn(Cc2ccccc2)nn1 | inactive: -1.16%
CC(C)(C)C1CCc2[nH]c3ccccc3c(=O)c2C1 (centres undefined) | inactive: -0.261%
O=S(=O)(Nc1ncnc2sc3c(c12)CCC3)c1ccc(Cl)s1 | inactive: 0.634%
COC(=O)c1cc(C#N)c(OC)nc1C | inactive: -0.0219%
O=C(NCC(c1ccco1)N1CCN(c2ccc(F)cc2)CC1)OCc1ccccc1 (centres undefined) | inactive: 0.174%
Cc1noc(C)c1NC(=O)N(C)C[C@H]1Oc2ccc(NC(=O)C3CCCCC3)cc2C(=O)N([C@H](C)CO)C[C@@H]1C | inactive: -0.199%
Cc1ccc(-n2nnc3c(SCC(=O)NCC4CCCO4)ncnc32)cc1 (centres undefined) | inactive: -0.442%
COc1ccc(N(Cc2cc3cccc(C)c3[nH]c2=O)S(C)(=O)=O)cc1 | inactive: -1.29%
COc1ccc(C(=O)OCCc2sc[n+](CC(=O)c3ccccc3)c2C)cc1 | inactive: 0.664%
Cc1noc(C)c1NC(=O)Nc1ccc2c(c1)C(=O)N([C@H](C)CO)C[C@H](C)[C@@H](CN(C)C(=O)NC1CCCCC1)O2 | inactive: -0.0795%
Cc1ccc(NC(=O)CSc2cccc[n+]2[O-])c([N+](=O)[O-])c1 | inactive: 0.529%
c1csc(-c2nc3nc4ccccc4nc3n2Cc2ccc3c(c2)OCO3)c1 | inactive: 0.811%
Cc1nnsc1C(=O)NNS(=O)(=O)c1ccccc1 | inactive: 0.0683%
CCN(C(=O)c1sc(N)c(C#N)c1C)C1CCCCC1 | inactive: 0.222%
O=C(Cn1cnc2ccccc2c1=O)Nc1ccc2c(c1)CCC2 | inactive: -0.000494%
CCCCC(=O)NC(NC(=S)N1CCOCC1)C(Cl)(Cl)Cl (centres undefined) | inactive: 0.00697%
C[C@H](CO)N1C[C@H](C)[C@@H](CN(C)S(=O)(=O)c2cn(C)cn2)Oc2ccc(NC(=O)C3CC3)cc2C1=O | inactive: 0.228%
N=c1n(CCCOc2ccccc2Cl)c2ccccc2n1CC(N)=O | inactive: 0.0205%
NCCN1CCN2C(=O)CN(C(=O)c3ccccc3)CC12 (centres undefined) | inactive: 0.941%
CN(C)c1cccc(C(=O)Nc2cc(C(F)(F)F)ccc2-n2cnc3ccccc32)c1 | inactive: 0.359%
CC1CN(C)C(C)CC1NCc1ccc2c(c1)OCO2 (centres undefined) | inactive: -0.093%

SMILES | activity change, negative = inhibition
CC(=O)NS(=O)(=O)c1ccc(NC(=O)CSc2ccc(Cl)cc2)cc1 | inactive: 0.0618%
O=C(COC(=O)C1(c2ccc(Cl)cc2)CCCC1)NC1CCS(=O)(=O)C1 (centres undefined) | inactive: -0.245%
C[C@H](CO)N1C[C@H](C)[C@@H](CN(C)S(=O)(=O)c2ccc(F)cc2)Oc2ccc(NS(=O)(=O)c3cccs3)cc2C1=O | inactive: 0.439%
O=C(C[C@H]1C/C=C/CC[C@@H](Cc2ccc(F)cc2)C(=O)O[C@@H](c2ccccc2)CNC1=O)NCCO | inactive: 0.262%
CC(=O)N1CCN(c2ccc([N+](=O)[O-])c(-n3nc(C)cc3C)c2)CC1 | inactive: 0.213%
Cn1c(=O)[nH]c(=O)c2[nH]c(NCCCN3CCOCC3)nc21 | inactive: 0.647%
Cc1cccc(Oc2nc(CN3CCOCC3)nc3sc4c(c23)CCCC4)c1 | inactive: 0.0683%
Cc1cccc2sc(NNC(=O)c3cc(=O)c4ccccc4o3)nc12 | inactive: 0.499%
COc1ccc(/C=N/Nc2cc(=O)n(C)c(=O)n2C)cc1OC | inactive: 0.0393%
COc1ccc(CN2CCCCC2C)c(C)c1C (centres undefined) | inactive: 0.0195%
CCCC(=O)Nc1nc2c(c(=O)[nH]1)CCCC2 | inactive: 1.02%
COc1cc2c(cc1OC)C1=C(C#N)COCN1CC2 | inactive: -0.477%
O=C(NC1(O)C(=O)c2ccccc2C1=O)c1c(Cl)cccc1Cl | inactive: -1.65%
COc1ccc(/C=N/NC(=O)c2cc(C)on2)c2ccccc12 | inactive: 0.0464%
C[C@H](CO)N1C[C@H](C)[C@@H](CN(C)C(=O)Nc2ccc3c(c2)OCO3)Oc2c(NS(=O)(=O)c3ccc(F)cc3)cccc2C1=O | inactive: 0.216%
CCN(CC)C(=O)N1CCc2ccccc2C1CN1C(=O)c2ccccc2C1=O (centres undefined) | inactive: -0.523%
CNC[C@@H]1Oc2ccc(NC(=O)Nc3cccc4ccccc34)cc2C(=O)N([C@@H](C)CO)C[C@@H]1C | inactive: 0.13%
O=C(NCC(=O)N1CCCCC1)c1sc2ccccc2c1Cl | inactive: 0.0195%
CCOC(=O)c1nc(C)n(-c2cc(Cl)ccc2Cl)n1 | inactive: 0.614%
CCCCCCc1cc2cc(-c3nnc(-c4ccccc4)o3)c(=O)oc2cc1O | inactive: -0.197%
CCN(CCNS(=O)(=O)c1ccc2c(c1)oc(=O)n2C)c1ccccc1 | inactive: -0.21%
